Measured values taken from PMC11790492 (Nature Microbiology, 2024).

What was measured:
[1] = target: T1, KorA (plasmid RK2) (UniProt P03052); assay: native MS; details: 2.5-fold excess KorA displaces Eσ70; recombinant protein; protein details: C-terminal His6 (pET21b)
T1 sequence (looked up, limits assumed): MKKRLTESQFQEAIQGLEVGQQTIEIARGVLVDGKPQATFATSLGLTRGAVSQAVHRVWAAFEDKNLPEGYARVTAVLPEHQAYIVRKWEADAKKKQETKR

[2] = target: T2, KorB (plasmid RK2, expressed in Escherichia coli) (UniProt P07674); assay: native MS; details: 2.5-fold excess KorB displaces Eσ70; recombinant protein; protein details: C-terminal His6 (pET21b)
T2 sequence (looked up, limits assumed): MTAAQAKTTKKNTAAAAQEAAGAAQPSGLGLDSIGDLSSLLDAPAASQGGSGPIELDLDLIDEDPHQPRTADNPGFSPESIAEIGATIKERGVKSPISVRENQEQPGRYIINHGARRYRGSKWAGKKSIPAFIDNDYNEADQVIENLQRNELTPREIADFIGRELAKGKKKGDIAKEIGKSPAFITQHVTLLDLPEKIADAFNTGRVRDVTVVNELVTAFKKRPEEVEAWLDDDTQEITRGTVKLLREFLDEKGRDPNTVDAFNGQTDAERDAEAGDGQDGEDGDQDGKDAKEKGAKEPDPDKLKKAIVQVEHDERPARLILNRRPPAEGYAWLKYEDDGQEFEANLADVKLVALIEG

“GTTACGCCAAGGACGAGTTTTAGCGGCTAAAGGTGTTGACGTGCGAGAAATGTTTAGCTAAACTTCTCTCATGTGCTGGCGGCTGTCACCGCTATGTTCA (double strand) [PkorA 100 bp (nMS)]”: binds [1]; binds [2].

For at least one entry, the source does not settle the construct or the ends of the probe. At least one verdict was read from the data and is not stated in words by the source. Tags and fusion partners may be left off the protein sequences shown.
